The text below walks through data of article PMC9638028, “Yeast Smy2 and its human homologs GIGYF1 and -2 regulate Cdc48/VCP function during transcription stress” (Cell Reports, 2022).

Sequences of proteins named here, by UniProt entry; tags and fusion partners are left off.
UniProt P25694: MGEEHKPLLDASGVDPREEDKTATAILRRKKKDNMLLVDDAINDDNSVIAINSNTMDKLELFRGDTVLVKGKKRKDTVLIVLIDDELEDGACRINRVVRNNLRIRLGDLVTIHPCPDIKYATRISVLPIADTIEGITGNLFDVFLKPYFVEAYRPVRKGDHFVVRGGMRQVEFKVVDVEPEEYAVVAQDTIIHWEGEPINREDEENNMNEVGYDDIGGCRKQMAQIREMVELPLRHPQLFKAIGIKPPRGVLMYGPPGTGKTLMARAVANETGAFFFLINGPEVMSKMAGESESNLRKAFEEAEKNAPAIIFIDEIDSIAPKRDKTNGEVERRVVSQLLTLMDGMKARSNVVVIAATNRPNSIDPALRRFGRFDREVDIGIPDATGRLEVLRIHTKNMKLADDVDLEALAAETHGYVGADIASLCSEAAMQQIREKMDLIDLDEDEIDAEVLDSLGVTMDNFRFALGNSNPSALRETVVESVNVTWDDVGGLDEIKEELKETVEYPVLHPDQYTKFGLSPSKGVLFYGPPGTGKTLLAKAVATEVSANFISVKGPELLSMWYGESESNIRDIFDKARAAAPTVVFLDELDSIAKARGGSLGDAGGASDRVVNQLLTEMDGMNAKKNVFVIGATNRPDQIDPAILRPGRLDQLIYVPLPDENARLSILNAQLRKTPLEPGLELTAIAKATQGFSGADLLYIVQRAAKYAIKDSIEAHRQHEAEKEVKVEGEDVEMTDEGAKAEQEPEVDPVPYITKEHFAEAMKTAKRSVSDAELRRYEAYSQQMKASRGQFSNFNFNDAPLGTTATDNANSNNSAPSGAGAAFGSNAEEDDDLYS
UniProt P04050: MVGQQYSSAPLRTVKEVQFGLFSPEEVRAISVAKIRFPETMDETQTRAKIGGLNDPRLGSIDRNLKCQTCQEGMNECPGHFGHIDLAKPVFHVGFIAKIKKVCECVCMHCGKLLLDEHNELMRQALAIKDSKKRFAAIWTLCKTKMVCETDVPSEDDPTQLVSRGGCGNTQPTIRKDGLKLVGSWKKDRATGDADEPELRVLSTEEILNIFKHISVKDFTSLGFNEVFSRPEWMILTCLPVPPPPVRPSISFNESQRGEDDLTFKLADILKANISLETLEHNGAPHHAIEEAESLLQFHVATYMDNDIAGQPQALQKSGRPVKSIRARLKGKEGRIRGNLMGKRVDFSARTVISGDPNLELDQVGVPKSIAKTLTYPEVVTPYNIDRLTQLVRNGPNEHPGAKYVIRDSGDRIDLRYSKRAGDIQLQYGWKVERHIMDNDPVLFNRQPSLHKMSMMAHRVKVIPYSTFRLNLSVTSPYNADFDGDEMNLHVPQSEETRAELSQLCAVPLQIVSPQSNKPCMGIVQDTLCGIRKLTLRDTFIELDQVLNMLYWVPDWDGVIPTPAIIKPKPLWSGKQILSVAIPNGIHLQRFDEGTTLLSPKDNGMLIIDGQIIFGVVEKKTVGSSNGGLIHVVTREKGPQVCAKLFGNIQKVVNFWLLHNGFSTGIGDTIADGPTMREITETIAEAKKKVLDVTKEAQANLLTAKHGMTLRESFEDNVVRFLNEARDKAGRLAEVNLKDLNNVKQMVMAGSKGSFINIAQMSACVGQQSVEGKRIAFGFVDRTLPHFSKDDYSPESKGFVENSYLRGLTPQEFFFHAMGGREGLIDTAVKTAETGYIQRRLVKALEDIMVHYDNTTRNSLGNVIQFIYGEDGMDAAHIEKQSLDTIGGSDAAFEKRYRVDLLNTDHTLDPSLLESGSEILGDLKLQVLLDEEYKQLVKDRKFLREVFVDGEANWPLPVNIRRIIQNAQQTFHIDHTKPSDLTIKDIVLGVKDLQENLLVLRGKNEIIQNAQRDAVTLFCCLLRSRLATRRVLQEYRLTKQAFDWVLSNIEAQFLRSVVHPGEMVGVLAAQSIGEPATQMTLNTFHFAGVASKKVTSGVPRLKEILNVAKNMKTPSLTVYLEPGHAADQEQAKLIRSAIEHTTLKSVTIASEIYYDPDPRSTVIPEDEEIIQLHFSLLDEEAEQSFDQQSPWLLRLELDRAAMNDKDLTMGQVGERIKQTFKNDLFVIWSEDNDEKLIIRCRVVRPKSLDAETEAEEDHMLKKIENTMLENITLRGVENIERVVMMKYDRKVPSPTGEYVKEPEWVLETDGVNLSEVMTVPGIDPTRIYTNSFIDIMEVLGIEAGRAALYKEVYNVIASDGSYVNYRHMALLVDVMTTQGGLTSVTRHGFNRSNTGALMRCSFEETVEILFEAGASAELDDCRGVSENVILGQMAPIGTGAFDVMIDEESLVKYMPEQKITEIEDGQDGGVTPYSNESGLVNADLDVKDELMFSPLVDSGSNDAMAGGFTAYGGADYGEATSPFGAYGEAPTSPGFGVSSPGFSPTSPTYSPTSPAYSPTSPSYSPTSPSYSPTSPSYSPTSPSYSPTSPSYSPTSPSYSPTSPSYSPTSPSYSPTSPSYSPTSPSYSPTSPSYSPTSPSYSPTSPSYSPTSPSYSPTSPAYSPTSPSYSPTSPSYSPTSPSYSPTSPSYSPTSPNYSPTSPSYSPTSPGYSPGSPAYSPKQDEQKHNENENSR

These are yes or no findings as the source states them, for the method shown. Binding seen in cells or lysates may run through a third protein. Some binding calls cover weakened binding; strength is not graded here. For some assays here: Sequences can lack the tags named with a protein.

In assay [1] the target is T1, FLAG3-Smy2 (S. cerevisiae) (UniProt P32909).
T1 sequence: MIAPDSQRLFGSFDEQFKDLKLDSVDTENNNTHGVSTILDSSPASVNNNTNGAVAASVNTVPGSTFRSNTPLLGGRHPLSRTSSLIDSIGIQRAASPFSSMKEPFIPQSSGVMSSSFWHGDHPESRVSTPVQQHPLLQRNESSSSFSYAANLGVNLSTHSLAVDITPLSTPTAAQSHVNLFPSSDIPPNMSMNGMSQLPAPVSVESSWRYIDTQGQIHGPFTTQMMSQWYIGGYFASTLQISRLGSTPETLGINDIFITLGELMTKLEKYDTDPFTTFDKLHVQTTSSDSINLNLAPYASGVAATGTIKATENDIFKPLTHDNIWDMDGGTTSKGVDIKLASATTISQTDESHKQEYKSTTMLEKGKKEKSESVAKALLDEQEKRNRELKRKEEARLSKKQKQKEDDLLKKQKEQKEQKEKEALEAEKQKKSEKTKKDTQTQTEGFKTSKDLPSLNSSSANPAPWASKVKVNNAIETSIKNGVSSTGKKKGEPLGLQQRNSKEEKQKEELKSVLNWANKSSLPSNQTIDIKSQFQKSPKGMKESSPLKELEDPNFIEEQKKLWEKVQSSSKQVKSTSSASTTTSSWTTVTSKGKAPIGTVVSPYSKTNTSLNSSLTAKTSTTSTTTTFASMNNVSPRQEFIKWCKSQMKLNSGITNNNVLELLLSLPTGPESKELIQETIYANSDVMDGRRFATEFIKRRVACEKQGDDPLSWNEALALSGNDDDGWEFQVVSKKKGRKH
Briefly: co-IP; anti-FLAG M2 agarose from yeast extracts of cells expressing FLAG3-Smy2 from the GAL promoter (gal) or not (glu); also at different times after 4-NQO; one wash at 500 mM salt.

For assay [2], the target named is T2, GIGYF2 (human (endogenous in MRC5VA)) (UniProt Q6Y7W6).
T2 sequence: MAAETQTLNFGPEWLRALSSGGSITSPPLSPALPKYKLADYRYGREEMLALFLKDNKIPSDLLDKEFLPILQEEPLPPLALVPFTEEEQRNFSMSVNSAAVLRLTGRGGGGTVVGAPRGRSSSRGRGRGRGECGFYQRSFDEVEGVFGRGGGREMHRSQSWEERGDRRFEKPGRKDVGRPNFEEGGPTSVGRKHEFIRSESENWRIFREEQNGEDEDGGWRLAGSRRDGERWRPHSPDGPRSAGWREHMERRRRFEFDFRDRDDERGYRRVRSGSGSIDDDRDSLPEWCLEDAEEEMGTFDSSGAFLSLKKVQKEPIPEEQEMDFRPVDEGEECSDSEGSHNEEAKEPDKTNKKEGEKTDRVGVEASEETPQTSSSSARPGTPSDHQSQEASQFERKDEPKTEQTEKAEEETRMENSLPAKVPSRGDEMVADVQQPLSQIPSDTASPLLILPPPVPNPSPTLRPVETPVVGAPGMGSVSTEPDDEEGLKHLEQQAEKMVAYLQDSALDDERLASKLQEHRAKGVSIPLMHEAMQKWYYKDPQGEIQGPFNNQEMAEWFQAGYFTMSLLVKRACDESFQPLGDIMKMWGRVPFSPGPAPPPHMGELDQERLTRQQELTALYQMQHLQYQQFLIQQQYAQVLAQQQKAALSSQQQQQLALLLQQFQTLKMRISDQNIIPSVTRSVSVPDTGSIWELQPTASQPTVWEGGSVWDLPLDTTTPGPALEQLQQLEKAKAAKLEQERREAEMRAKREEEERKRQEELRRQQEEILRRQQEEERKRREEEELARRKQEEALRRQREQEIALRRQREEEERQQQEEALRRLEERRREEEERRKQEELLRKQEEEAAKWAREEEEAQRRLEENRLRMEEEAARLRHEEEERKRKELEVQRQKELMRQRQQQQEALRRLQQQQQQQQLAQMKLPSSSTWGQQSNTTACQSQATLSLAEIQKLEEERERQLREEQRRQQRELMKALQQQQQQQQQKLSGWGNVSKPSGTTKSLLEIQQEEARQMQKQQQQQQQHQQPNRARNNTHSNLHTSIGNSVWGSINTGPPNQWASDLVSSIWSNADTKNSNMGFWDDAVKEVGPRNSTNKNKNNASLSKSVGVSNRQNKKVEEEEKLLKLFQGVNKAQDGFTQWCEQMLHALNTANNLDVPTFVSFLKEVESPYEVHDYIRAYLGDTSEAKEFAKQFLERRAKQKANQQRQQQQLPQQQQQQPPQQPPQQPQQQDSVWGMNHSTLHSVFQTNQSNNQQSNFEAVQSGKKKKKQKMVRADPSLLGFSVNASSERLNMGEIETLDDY
The assay is described as follows: proximity ligation; Duolink PLA on fixed, permeabilised MRC5VA wild-type or GIGYF1/2 double-knockout cells; antibodies to p97, GIGYF2, UFD1.

The target in assay [3] is T2, GIGYF2 (human (endogenous in MRC5VA)). Briefly: co-IP; IP with anti-GIGYF2 antibody from MRC5VA wild-type and GIGYF1/2 double-knockout cell extracts, with and without UV; blot for p97/VCP.
Assay [4] has as its target Cdc48-HA3 (S. cerevisiae) (UniProt P25694). The assay is described as follows: co-IP; anti-HA IP from yeast extracts of Myc-tagged Smy2 strains with or without Cdc48-HA3; with and without UV irradiation.

Turning to Rpb1 (from UniProt P04050 1-1733), the binding entry in assay [1] was “binds”.
For p97/VCP (from UniProt P55072 1-806), the binding result in assay [2] and in assay [3] was “binds” throughout.
As for Cdc48 (from UniProt P25694 1-835), in assay [1], the binding result is reported as “binds”.

B1: Myc9-TEV2-His6-Smy2 (protein, UniProt P32909 1-740)
chain: MIAPDSQRLFGSFDEQFKDLKLDSVDTENNNTHGVSTILDSSPASVNNNTNGAVAASVNTVPGSTFRSNTPLLGGRHPLSRTSSLIDSIGIQRAASPFSSMKEPFIPQSSGVMSSSFWHGDHPESRVSTPVQQHPLLQRNESSSSFSYAANLGVNLSTHSLAVDITPLSTPTAAQSHVNLFPSSDIPPNMSMNGMSQLPAPVSVESSWRYIDTQGQIHGPFTTQMMSQWYIGGYFASTLQISRLGSTPETLGINDIFITLGELMTKLEKYDTDPFTTFDKLHVQTTSSDSINLNLAPYASGVAATGTIKATENDIFKPLTHDNIWDMDGGTTSKGVDIKLASATTISQTDESHKQEYKSTTMLEKGKKEKSESVAKALLDEQEKRNRELKRKEEARLSKKQKQKEDDLLKKQKEQKEQKEKEALEAEKQKKSEKTKKDTQTQTEGFKTSKDLPSLNSSSANPAPWASKVKVNNAIETSIKNGVSSTGKKKGEPLGLQQRNSKEEKQKEELKSVLNWANKSSLPSNQTIDIKSQFQKSPKGMKESSPLKELEDPNFIEEQKKLWEKVQSSSKQVKSTSSASTTTSSWTTVTSKGKAPIGTVVSPYSKTNTSLNSSLTAKTSTTSTTTTFASMNNVSPRQEFIKWCKSQMKLNSGITNNNVLELLLSLPTGPESKELIQETIYANSDVMDGRRFATEFIKRRVACEKQGDDPLSWNEALALSGNDDDGWEFQVVSKKKGRKH
Regarding B1, in assay [4], the binding entry was “binds”.
